Measured values from publication PMC5645412, “AUNIP/C1orf135 directs DNA double-strand breaks towards the homologous recombination repair pathway” (Nature Communications, 2017).

Protein sequences, listed by entry. Tags and fused reporters are not part of them.
UniProt Q99708: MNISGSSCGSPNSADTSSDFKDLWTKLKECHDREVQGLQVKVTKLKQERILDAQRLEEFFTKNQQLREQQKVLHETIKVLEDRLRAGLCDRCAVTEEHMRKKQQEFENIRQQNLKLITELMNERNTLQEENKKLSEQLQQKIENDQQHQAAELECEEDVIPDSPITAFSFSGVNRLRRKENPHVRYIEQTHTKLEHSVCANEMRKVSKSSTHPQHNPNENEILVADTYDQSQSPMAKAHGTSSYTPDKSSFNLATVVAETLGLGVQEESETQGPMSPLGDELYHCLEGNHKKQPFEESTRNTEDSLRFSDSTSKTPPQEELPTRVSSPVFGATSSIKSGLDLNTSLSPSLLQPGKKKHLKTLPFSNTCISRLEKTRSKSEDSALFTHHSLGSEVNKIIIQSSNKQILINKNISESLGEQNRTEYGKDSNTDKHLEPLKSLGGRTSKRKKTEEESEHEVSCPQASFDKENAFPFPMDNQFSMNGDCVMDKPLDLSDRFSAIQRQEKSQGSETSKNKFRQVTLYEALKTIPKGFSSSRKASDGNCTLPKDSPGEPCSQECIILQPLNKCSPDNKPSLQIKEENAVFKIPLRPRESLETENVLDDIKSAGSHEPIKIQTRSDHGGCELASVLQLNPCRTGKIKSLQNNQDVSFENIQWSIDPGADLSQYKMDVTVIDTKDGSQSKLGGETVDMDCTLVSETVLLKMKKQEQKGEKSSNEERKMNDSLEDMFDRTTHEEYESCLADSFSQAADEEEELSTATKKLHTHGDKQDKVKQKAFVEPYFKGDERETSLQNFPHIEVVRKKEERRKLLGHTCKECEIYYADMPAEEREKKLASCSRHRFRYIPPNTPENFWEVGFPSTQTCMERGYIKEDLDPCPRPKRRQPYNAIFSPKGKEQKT
UniProt Q92878: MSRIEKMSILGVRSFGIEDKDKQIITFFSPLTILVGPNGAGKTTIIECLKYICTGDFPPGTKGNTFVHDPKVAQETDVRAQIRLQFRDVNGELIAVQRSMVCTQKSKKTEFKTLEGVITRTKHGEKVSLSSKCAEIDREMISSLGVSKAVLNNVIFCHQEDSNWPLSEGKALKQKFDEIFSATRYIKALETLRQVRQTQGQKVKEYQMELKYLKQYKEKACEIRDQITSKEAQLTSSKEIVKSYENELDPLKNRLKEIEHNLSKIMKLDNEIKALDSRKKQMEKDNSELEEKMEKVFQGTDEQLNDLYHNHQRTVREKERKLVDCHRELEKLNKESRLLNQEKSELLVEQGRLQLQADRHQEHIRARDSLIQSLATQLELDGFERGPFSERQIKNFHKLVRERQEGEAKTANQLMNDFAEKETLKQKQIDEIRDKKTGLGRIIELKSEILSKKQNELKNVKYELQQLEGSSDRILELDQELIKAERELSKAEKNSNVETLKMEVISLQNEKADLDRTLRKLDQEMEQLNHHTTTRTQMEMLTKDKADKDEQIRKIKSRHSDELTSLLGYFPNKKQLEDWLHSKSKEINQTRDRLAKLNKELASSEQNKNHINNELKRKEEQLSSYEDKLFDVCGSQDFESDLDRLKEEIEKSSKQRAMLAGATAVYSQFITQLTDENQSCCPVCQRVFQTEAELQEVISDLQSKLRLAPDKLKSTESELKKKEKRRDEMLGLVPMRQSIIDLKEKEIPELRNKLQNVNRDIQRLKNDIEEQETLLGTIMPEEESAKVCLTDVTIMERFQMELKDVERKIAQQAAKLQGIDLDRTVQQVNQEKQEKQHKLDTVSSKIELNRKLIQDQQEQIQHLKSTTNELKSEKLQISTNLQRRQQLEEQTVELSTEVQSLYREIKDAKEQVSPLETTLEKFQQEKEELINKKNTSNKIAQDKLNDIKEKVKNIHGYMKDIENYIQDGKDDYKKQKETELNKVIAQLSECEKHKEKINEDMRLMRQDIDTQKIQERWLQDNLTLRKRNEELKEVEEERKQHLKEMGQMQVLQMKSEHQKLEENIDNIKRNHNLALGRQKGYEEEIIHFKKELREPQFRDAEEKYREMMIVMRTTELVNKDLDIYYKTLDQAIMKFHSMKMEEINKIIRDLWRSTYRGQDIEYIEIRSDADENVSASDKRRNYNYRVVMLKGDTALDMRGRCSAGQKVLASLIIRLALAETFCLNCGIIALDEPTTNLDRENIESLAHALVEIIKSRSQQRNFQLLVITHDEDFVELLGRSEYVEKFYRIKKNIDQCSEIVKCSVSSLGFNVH

T1: SFB-tagged AUNIP (human) (UniProt Q9H7T9)
T1 sequence: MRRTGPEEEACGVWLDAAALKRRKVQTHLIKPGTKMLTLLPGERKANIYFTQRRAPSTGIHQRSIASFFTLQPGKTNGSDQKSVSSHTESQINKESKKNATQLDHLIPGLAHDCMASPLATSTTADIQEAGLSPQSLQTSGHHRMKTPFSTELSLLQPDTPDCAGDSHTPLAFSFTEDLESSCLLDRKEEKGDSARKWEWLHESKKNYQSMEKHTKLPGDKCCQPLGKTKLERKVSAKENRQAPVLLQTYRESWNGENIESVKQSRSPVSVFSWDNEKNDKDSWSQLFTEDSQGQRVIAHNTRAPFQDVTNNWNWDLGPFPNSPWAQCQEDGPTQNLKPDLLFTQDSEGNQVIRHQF


Key:
[1] = target: SFB-tagged wild-type CtIP (UniProt Q99708); assay: affinity purification with mass spectrometry; tandem affinity purification of SFB-CtIP from stably expressing HEK293T cells: NETN lysate and chromatin extract, streptavidin beads, biotin elution, S-protein Agarose, SDS-PAGE, mass spectrometry
SFB-tagged AUNIP (human) = target: T1, SFB-tagged AUNIP (human); assay: affinity purification with mass spectrometry; reverse tandem affinity purification of SFB-AUNIP from stably expressing HEK293T cells: NETN lysate and chromatin extract, streptavidin beads, biotin elution, S-protein Agarose, SDS-PAGE, mass spectrometry

| Molecule | binding [1] | binding (SFB-tagged AUNIP (human)) |
| --- | --- | --- |
| RAD50 (from UniProt Q92878 1-1312) | binds | binds |
| DNA2 (protein, UniProt P51530 1-1060) MEQLNELELLMEKSFWEEAELPAELFQKKVVASFPRTVLSTGMDNRYLVLAVNTVQNKEGNCEKRLVITASQSLENKELCILRNDWCSVPVEPGDIIHLEGDCTSDTWIIDKDFGYLILYPDMLISGTSIASSIRCMRRAVLSETFRSSDPATRQMLIGTVLHEVFQKAINNSFAPEKLQELAFQTIQEIRHLKEMYRLNLSQDEIKQEVEDYLPSFCKWAGDFMHKNTSTDFPQMQLSLPSDNSKDNSTCNIEVVKPMDIEESIWSPRFGLKGKIDVTVGVKIHRGYKTKYKIMPLELKTGKESNSIEHRSQVVLYTLLSQERRADPEAGLLLYLKTGQMYPVPANHLDKRELLKLRNQMAFSLFHRISKSATRQKTQLASLPQIIEEEKTCKYCSQIGNCALYSRAVEQQMDCSSVPIVMLPKIEEETQHLKQTHLEYFSLWCLMLTLESQSKDNKKNHQNIWLMPASEMEKSGSCIGNLIRMEHVKIVCDGQYLHNFQCKHGAIPVTNLMAGDRVIVSGEERSLFALSRGYVKEINMTTVTCLLDRNLSVLPESTLFRLDQEEKNCDIDTPLGNLSKLMENTFVSKKLRDLIIDFREPQFISYLSSVLPHDAKDTVACILKGLNKPQRQAMKKVLLSKDYTLIVGMPGTGKTTTICTLVRILYACGFSVLLTSYTHSAVDNILLKLAKFKIGFLRLGQIQKVHPAIQQFTEQEICRSKSIKSLALLEELYNSQLIVATTCMGINHPIFSRKIFDFCIVDEASQISQPICLGPLFFSRRFVLVGDHQQLPPLVLNREARALGMSESLFKRLEQNKSAVVQLTVQYRMNSKIMSLSNKLTYEGKLECGSDKVANAVINLRHFKDVKLELEFYADYSDNPWLMGVFEPNNPVCFLNTDKVPAPEQVEKGGVSNVTEAKLIVFLTSIFVKAGCSPSDIGIIAPYRQQLKIINDLLARSIGMVEVNTVDKYQGRDKSIVLVSFVRSNKDGTVGELLKDWRRLNVAITRAKHKLILLGCVPSLNCYPPLEKLLNHLNSEKLIIDLPSREHESLCHILGDFQRE |  | binds |
| GST-tagged AUNIP (wild-type) (natural protein, human, UniProt Q9H7T9 1-357, looked up, AUNIP/C1orf135, human; pCold vectors may add further N-terminal vector residues; also called GST-AUNIP; recombinant GST-AUNIP; source: E. coli BL21, purified on glutathione-Sepharose resin (kept on the beads)) MRRTGPEEEACGVWLDAAALKRRKVQTHLIKPGTKMLTLLPGERKANIYFTQRRAPSTGIHQRSIASFFTLQPGKTNGSDQKSVSSHTESQINKESKKNATQLDHLIPGLAHDCMASPLATSTTADIQEAGLSPQSLQTSGHHRMKTPFSTELSLLQPDTPDCAGDSHTPLAFSFTEDLESSCLLDRKEEKGDSARKWEWLHESKKNYQSMEKHTKLPGDKCCQPLGKTKLERKVSAKENRQAPVLLQTYRESWNGENIESVKQSRSPVSVFSWDNEKNDKDSWSQLFTEDSQGQRVIAHNTRAPFQDVTNNWNWDLGPFPNSPWAQCQEDGPTQNLKPDLLFTQDSEGNQVIRHQF | binds |  |

No constants are given. Whether binding was seen depends on the method and setting. In cells and extracts the contact can be indirect. These calls come from enrichment with a bait or labelling near it, and not all partners need be listed. For some of these results: Sequences can lack the tags named with a protein.
